# Reference: the supplement of paper PMC3334620
# In all, about 33,000 sequences were measured (“E-score (-0.5 to 0.5)”: median about -0.0059, highest 2% from about 0.26 on). The list shows a part of the results.
# Molecular target: T1, Cin5 (UniProt P40917)
# T1 sequence: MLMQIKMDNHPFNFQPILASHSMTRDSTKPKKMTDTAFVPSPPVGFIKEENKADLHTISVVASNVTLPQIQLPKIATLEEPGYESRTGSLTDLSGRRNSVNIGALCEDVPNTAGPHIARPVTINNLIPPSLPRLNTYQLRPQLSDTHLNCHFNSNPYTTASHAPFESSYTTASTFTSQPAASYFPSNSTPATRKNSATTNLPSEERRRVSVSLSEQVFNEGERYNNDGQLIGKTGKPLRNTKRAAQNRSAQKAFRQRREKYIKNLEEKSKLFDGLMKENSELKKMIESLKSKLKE
# Test: PBM E-score (8-mer binding enrichment) (E-score (-0.5 to 0.5)); higher = stronger / more preferred TF binding
# Details: protein concentration: 100 nM; construct: GST-full length
# In short: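 Full-length yeast transcription factors or their DNA-binding domains, GST-tagged and expressed with PURExpress, were applied at about 100-200 nM to universal all-10-mer Agilent arrays. These arrays had been made double-stranded by primer extension on fresh or once-stripped slides. Detection used fluorescent anti-GST, normalisation used masliner, and E-scores for ungapped eight-base words pooled with reverse complements came from the Universal PBM Analysis Suite.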
row,Sequence,PBM E-score
1,CCAACTCA,-0.0114
2,GCATGAGA,0.205
3,GTTCCTAA,-0.132
4,GGCACAAC,-0.104
5,CAAAGGTA,-0.0912
6,TGTTCCAA,-0.0783
7,GCCTAGAA,-0.114
8,TCCTATAA,0.109
9,CAATAATG,0.0624
10,TGAAGAAA,0.0943
11,GAAGACAA,0.00891
12,CAGACTGG,-0.108
13,CCACATCC,0.077
14,CTATCCGA,0.00159
15,ACATTTCC,0.0832
16,GCGAGGGA,-0.136
17,CCAAATCC,-0.0421
18,ACATGTTG,0.154
19,GATTCAGC,0.0231
20,ATAGCGTC,-0.13
21,GCCACGCC,-0.127
22,CACTTCGA,0.0479

# Part of the list above, with tabs.
row	Sequence	PBM E-score
16	GCGAGGGA	-0.136
17	CCAAATCC	-0.0421

# Later entries.

row,Sequence,PBM E-score
1,CTACAGGC,-0.209
2,GGTTGTAC,-0.00691
3,CAAAAATA,0.277
4,GTCGAAAC,-0.0513
5,ATGAACGC,0.211
6,ACTGGCTC,-0.186
7,AATCAACG,0.137
8,CCATGAAC,0.115
9,AGAACGGC,-0.0327
10,TATGGACA,0.0541
11,ACGTTCGC,-0.116
12,AGTTGCAC,-0.131
13,ATGTTAGC,0.107
14,ACTCAATC,0.188
15,TAGTTAGA,0.0856
16,CAGGTGCG,0.016
17,AGGTCCCC,-0.178
18,AGTCGTGC,-0.3
19,CAGGGCAG,-0.105
20,AGTATTCG,0.192
21,CTTATTAA,0.299
22,CAAAGTTC,-0.0124

row,Sequence,PBM E-score
1,TACTAACA,0.185
2,CGGCGGCC,-0.169
3,CATTGTGC,0.0593
4,GCCCATCC,-0.135
5,AATCGGCT,0.014
6,CCTGTGAG,-0.123
7,GAACCGGC,-0.198
8,CCTTATCA,0.0994
9,ACACCGCG,-0.148
10,ACATTCTC,0.0769
11,ACCCAGAC,0.039
12,CGTGCGGA,-0.0296
13,AATCCGTG,-0.0804
14,CAGGAGAA,0.0225
15,CACAGATG,0.00139
16,GGTACACA,-0.174
17,CTAGGTTC,-0.066
18,AGTAGACT,-0.0124
19,ATAGGTTA,0.17
20,GAATACTA,0.267
21,GACGTTCC,0.0647
22,TAGCCACA,-0.051

row,Sequence,PBM E-score
1,TCTTCCAA,-0.0605
2,GACGAGGC,-0.162
3,AACACCTT,0.0638
4,AAACATCG,-0.156
5,CCTAAATC,0.0853
6,CATAAAAA,0.131
7,GGATTCAA,-0.0607
8,CAGCATAA,0.148
9,ACATTGCT,-0.0381
10,TGGGGAAA,0.187
11,CGGTCCTA,-0.232
12,AATTCTAA,0.143
13,CTTGTTGA,-0.0242
14,AGGCGAAG,-0.195
15,CCGCCCAA,-0.189
16,GCGTTCCA,-0.0663
17,ATTTGCAG,0.0556
18,CAGACGCC,-0.151
19,ATGATTCG,0.053
20,GAGTTCTA,-0.116
